According to PMC5103296:
Results are given in words; binding and its absence hold for the method and conditions named. Binding can be weak; no strength is given.

Target: GST-PDZ2 (syntenin-1 PDZ2 domain)
Test: pull-down; purified GST-PDZ2 or mutants incubated with biotinylated 4L for 2 hr; bound material detected by immunoblotting with anti-biotin antibody; both purified

binding: binds
B1: biotinylated syndecan-4 cytoplasmic domain peptide (biotinylated 4L) (peptide)
peptide: RMKKKDEGSYDLGKKPIYKKAPTNEFYA
modifications: biotin (Mini-biotin-XX protein labeling kit), site not stated
